From PMC8267177 (Frontiers in Chemistry, 2021) come the findings set out here.

Some peptides are written in HELM: one residue between dots, names in brackets for other building blocks, links after the first $. Some results are limits rather than exact numbers.

Data set [1] can be described thus: general procedure: Fmoc solid-phase peptide synthesis; 2-chlorotrityl chloride resin (Carbolution, 1.60 mmol/g, 100–200 mesh); DIC/hydroxybenzotriazole (amino acids); bromoacetic acid/DIC (submonomer); HATU. To be noted: for final HPLC purity: 218 nm; for isolated yield: on resin loading.
Where [2] appears, read: whole synthesis, scale of the general procedure 200 µmol.
[3] abbreviates: whole synthesis, over 11 steps, scale of the general procedure 200 µmol.
Setting [4] is: conjugation step, on macrocycle.

For the substance “PEPTIDE1{F.[N1ph].[N1ph].[N1ph].[N4am].F}$PEPTIDE1,PEPTIDE1,1:R1-6:R2$$$V2.0”, in “peptide synthesis” (whole synthesis), the “final HPLC purity” value is recorded as 87% and the isolated yield was determined as 15%.
“PEPTIDE1{F.[N1ph].[N1ph].[N4am]}$PEPTIDE1,PEPTIDE1,1:R1-4:R2$$$V2.0” displayed an isolated mass in data set [1] (whole synthesis) of 30.8 mg. In addition, the “final HPLC purity” value in data set [1] (setting [2]) was more than 99%. In data set [1] (setting [3]), the isolated yield was 16%.
With “PEPTIDE1{F.[N1ph].[N1ph].[N4am]}|CHEM1{[Rhod]}$PEPTIDE1,PEPTIDE1,1:R1-4:R2|PEPTIDE1,CHEM1,4:R3-1:R2$$$V2.0”, in data set [1] (conjugation step), the “final HPLC purity” value is given as more than 99%. In data set [1] (setting [4]), this substance displayed a conjugation yield of 23%.
Regarding “PEPTIDE1{F.[N1phpCl].[N1phpCl].[N1phpCl].[N4am].F}$PEPTIDE1,PEPTIDE1,1:R1-6:R2$$$V2.0”, in the data set “peptide synthesis” (whole synthesis), the “final HPLC purity” value is on record as 83% and the isolated yield amounted to 12%.
For the substance “PEPTIDE1{F.[N1phpCl].[N4am].[N1ph]}$PEPTIDE1,PEPTIDE1,1:R1-4:R2$$$V2.0”, the isolated mass in data set [1] (whole synthesis) is on record as 31.7 mg. Besides, in data set [1] (setting [2]), the “final HPLC purity” value was more than 99%. In data set [1] (setting [3]), the isolated yield stood at 26%.
On to “PEPTIDE1{F.[N1phpCl].[N4am].[N1ph]}|CHEM1{[Rhod]}$PEPTIDE1,PEPTIDE1,1:R1-4:R2|PEPTIDE1,CHEM1,3:R3-1:R2$$$V2.0”, for which the “final HPLC purity” value in data set [1] (conjugation step) was found to be 89%. The conjugation yield in data set [1] (setting [4]) was determined as 22%.
“PEPTIDE1{F.[N3m].[N1ph].[N4am]}$PEPTIDE1,PEPTIDE1,1:R1-4:R2$$$V2.0” yielded an isolated mass in data set [1] (whole synthesis) of 10.0 mg. Besides, the “final HPLC purity” value in data set [1] (setting [2]) is given as 97%. Further, the isolated yield in data set [1] (setting [3]) is on record as 9.6%.
On to “PEPTIDE1{F.[N3m].[N1ph].[N4am]}|CHEM1{[Rhod]}$PEPTIDE1,PEPTIDE1,1:R1-4:R2|PEPTIDE1,CHEM1,4:R3-1:R2$$$V2.0”, for which, in data set [1] (conjugation step), the “final HPLC purity” value is reported as more than 99%. In data set [1] (setting [4]), this substance returned a conjugation yield of 17%.
Turning to “PEPTIDE1{F.[N3m].[N3m].[N1ph].[N4am].F}$PEPTIDE1,PEPTIDE1,1:R1-6:R2$$$V2.0”, the isolated mass in data set [1] (whole synthesis) worked out at 15.3 mg. Besides, the “final HPLC purity” value in data set [1] (setting [2]) was more than 99%. For the same substance, the isolated yield in data set [1] (whole synthesis, over 15 steps, scale of the general procedure 200 µmol) is 9.6%.
Take “PEPTIDE1{F.[N4am].[N1ph].Y}$PEPTIDE1,PEPTIDE1,1:R1-4:R2$$$V2.0”: the isolated mass in data set [1] (whole synthesis) is 16.4 mg. For the same substance, the “final HPLC purity” value in data set [1] (setting [2]) amounted to 94%. For the same substance, the isolated yield in data set [1] (setting [3]) came out at 28%.
For “PEPTIDE1{W.[N1ph].[N1ph].K}$PEPTIDE1,PEPTIDE1,1:R1-4:R2$$$V2.0”, the isolated mass in data set [1] (whole synthesis) was determined as 17.3 mg. The substance further registered an isolated yield in data set [1] (setting [3]) of 17%.
Consider “PEPTIDE1{W.[N1ph].[N1ph].K}|CHEM1{[Rhod]}$PEPTIDE1,PEPTIDE1,1:R1-4:R2|PEPTIDE1,CHEM1,4:R3-1:R2$$$V2.0”, for which the “final HPLC purity” value in data set [1] (conjugation step) is on record as more than 99%. This substance yielded a conjugation yield in data set [1] (setting [4]) of 38%.
“PEPTIDE1{W.[N1phpCl].[N1phpCl].K}$PEPTIDE1,PEPTIDE1,1:R1-4:R2$$$V2.0” had an isolated mass in data set [1] (whole synthesis) of 7.50 mg. Further, in data set [1] (setting [2]), the “final HPLC purity” value is reported as 88%. In data set [1] (setting [3]), this substance came in with an isolated yield of 8.5%.
As to “PEPTIDE1{W.[N1phpCl].[N1phpCl].K}|CHEM1{[Rhod]}$PEPTIDE1,PEPTIDE1,1:R1-4:R2|PEPTIDE1,CHEM1,4:R3-1:R2$$$V2.0”, the “final HPLC purity” value in data set [1] (conjugation step) is recorded as 91%. Further, the conjugation yield in data set [1] (setting [4]) amounted to 21%.
As to “PEPTIDE1{Y.[N3m].[N3m].K}$PEPTIDE1,PEPTIDE1,1:R1-4:R2$$$V2.0”, in data set [1] (whole synthesis), the isolated mass is 14.8 mg. For the same substance, the “final HPLC purity” value in data set [1] (setting [2]) worked out at 91%. The isolated yield in data set [1] (setting [3]) came out at 13%.
Regarding “PEPTIDE1{Y.[N3m].[N3m].K}|CHEM1{[Rhod]}$PEPTIDE1,PEPTIDE1,1:R1-4:R2|PEPTIDE1,CHEM1,4:R3-1:R2$$$V2.0”, in data set [1] (conjugation step), the conjugation yield was found to be 6% and the “final HPLC purity” value is given as more than 99%. Also, the conjugation yield in data set [1] (setting [4]) worked out at 11%.
For the substance “cyclo-(l-Phe-N1ph-N1ph-N1ph-N4am(Rhod)-l-Phe)”, the “final HPLC purity” value in “peptide synthesis” (conjugation step) is more than 99%. The conjugation yield in “peptide synthesis” (conjugation step, T1 r10) amounted to 52%; in “peptide synthesis” (conjugation step, run 1) it was 91%.
Consider “cyclo-(l-Phe-N1ph^pCl-N1ph^pCl-N1ph^pCl-N4am(Rhod)-l-Phe)”, for which the “final HPLC purity” value in “peptide synthesis” (conjugation step) is more than 99%. The conjugation yield in “peptide synthesis” (conjugation step, T1 r11) stood at 62%; in the data set “peptide synthesis” (conjugation step, run 1), 61%.
“cyclo-(l-Phe-N3m-N3m-N1ph-N4am(Rhod)-l-Phe)”: in the data set “peptide synthesis” (conjugation step), the conjugation yield turned out to be 14% and the “final HPLC purity” value is reported as more than 99%.
With cyclo-(l-Phe-N4am(Rhod)-N1ph-l-Tyr), in data set [1] (conjugation step), the “final HPLC purity” value is 93%. Moreover, in data set [1] (setting [4]), the conjugation yield turned out to be 7.0%.
